Experimental data taken from the supplement of paper PMC10398353.
Several values for one entry are separate records, joined by “and”; a condition that tells them apart may be missing. Identical values can stand only once. Counter-ions that a name gives are not always drawn. ± gives the standard deviation of the averaged measurements. The list shows a part of the results. Single values of this set are uncertain.

tested on: Salmonella enterica serovar Typhimurium ST313 D23580; assay: normalized bacterial growth (OD600 20 h minus 0 h, interquartile-mean normalized) (fraction of plate interquartile mean); higher = more bacterial growth (less inhibition); details: LPM (pH 5.8, low phosphate, low Mg2+), concentration: 10 µM, temperature: 37 °C

SMILES	normalized bacterial growth
COc1ccc2c(c1)OC[C@@H](Cc1ccc(OC)c(OC)c1)[C@H]2O	0.807
NC(C(=O)O)c1cc(O)cc(O)c1 ["(S)-3,5-Dihydroxyphenylglycine"]	0.951
CN(C/C=C/C#CC(C)(C)C)Cc1cccc2ccccc12	0.649
Fc1ccc([C@@H]2CCNC[C@H]2COc2ccc3c(c2)OCO3)cc1 [Paroxetine hydrochloride hemihydrate (MW = 374.83)]	0.796
C=C1CCC2C(CC2(C)C)C(=O)CCC1O (stereo not drawn)	1.06
NC(CO)C(=O)NNCc1ccc(O)c(O)c1O (stereo not drawn) [Benserazide hydrochloride]	0.725
C[C@H]1COc2c(N3CCN(C)CC3)c(F)cc3c(=O)c(C(=O)O)cn1c23	0.123
CN(C)CCCN1c2ccccc2CCc2ccccc21 [Imipramine hydrochloride]	0.963
Cc1cccc(C(=O)NCN2CCN(c3ccccc3C#N)CC2)c1 ["PD 168,077 maleate"]	1.07
O=C(NC1CCCCC1)NC1CCCCC1	1.38
CN1CCC(OC(c2ccccc2)c2ccccc2)CC1	1.05
O=C(Oc1cccc2cccnc12)c1ccccc1	0.926
C/C=C1\[C@H]2C=C(C)C[C@]1(N)c1ccc(=O)[nH]c1C2	0.988 and 1.18
C[N+](C)(C)CCO.[Cl-]	1.15
Nc1ccc2c3c(cccc13)C(=O)NC2=O ["4-Amino-1,8-naphthalimide"]	0.993
Cc1cc(O)c2c(c1)C(=O)c1cc(O)cc(O)c1C2=O	0.973
C[C@H](CCC(=O)O)[C@H]1CC[C@H]2[C@@H]3CC[C@@H]4C[C@H](O)CC[C@]4(C)[C@H]3CC[C@]12C [Lithocholic acid]	0.831
C[C@H](CCC(=O)O)[C@H]1CC[C@H]2[C@@H]3CC[C@@H]4C[C@H](O)CC[C@]4(C)[C@H]3CC[C@]12C	1.04
CC(=O)SCC(Cc1ccccc1)C(=O)NCC(=O)OCc1ccccc1 (stereo not drawn) [Racecadotril]	1.02
O=C(O)CCCC[C@@H]1SC[C@@H]2NC(=O)N[C@@H]21 [Biotin]	1.07
O=C(O)CCCC[C@@H]1SC[C@@H]2NC(=O)N[C@@H]21	1.23
CCOC(=O)Nc1ccc(NCc2ccc(F)cc2)nc1N [Flupirtine maleate]	0.79

SMILES	normalized bacterial growth
C[C@@]1(O)CCOC(=O)C1 ["Mevalonic-D, L acid lactone"]	1.02
COCC(=O)Nc1c(I)c(C(=O)NCC(O)CO)c(I)c(C(=O)N(C)CC(O)CO)c1I (stereo not drawn) [Iopromide]	1.02
CC1COc2c(N3CCN(C)CC3)c(F)cc3c(=O)c(C(=O)O)cn1c23 (stereo not drawn) [Ofloxacin]	0.0196
COc1c2c(nc3ccccc13)OC(C(C)(O)CO)C2 (stereo not drawn)	1.02
Cn1cnc([N+](=O)[O-])c1Sc1ncnc2[nH]cnc12 [Azathioprine]	0.888 ± 0.15
Cn1cnc([N+](=O)[O-])c1Sc1ncnc2[nH]cnc12	1.07
CC(C)C(=O)Nc1ccc([N+](=O)[O-])c(C(F)(F)F)c1 [Flutamide]	0.837
CC(=O)OCC[N+](C)(C)C	1.14
CC1(C)CCC2=C(O1)c1ccccc1C(=O)C2=O	1.09
OCCN1C[C@H](O)[C@@H](O)[C@H](O)[C@H]1CO	1.05
CC(=O)O[C@@H]1CC2C(C)(C)C(=O)CC[C@]2(C)C2CC[C@]3(C)C(=CC(=O)O[C@H]3c3ccoc3)[C@@]21C (stereo partly drawn)	0.63
CC(=O)O[C@H]1C[C@@H](OC(C)=O)C(C)(C)C2CC(=O)[C@]3(C)C(CC[C@@]4(C)[C@H](c5ccoc5)OC(=O)[C@H]5O[C@]543)[C@]21C (stereo partly drawn)	0.884
O=C(O)c1nc2cc(Cl)c(Cl)cc2nc1O	1.05
O=C(O)Cc1ccccc1Nc1c(Cl)cccc1Cl [Diclofenac sodium]	1.12
O=C(O)Cc1ccccc1Nc1c(Cl)cccc1Cl	1.01
O=c1cc(-c2cc(O)c(O)c(O)c2)oc2cc(O)cc(O)c12	1.14
CN1CCN(CCCN2c3ccccc3Sc3ccc(S(=O)(=O)N(C)C)cc32)CC1 [Thioproperazine dimesylate]	0.967
C[C@@H]1O[C@@H](Oc2c(-c3ccc(O)c(O)c3)oc3cc(O)cc(O)c3c2=O)[C@H](O)[C@H](O)[C@H]1O	0.976 ± 0.091
CC(=O)Oc1cc(C(F)(F)F)ccc1C(=O)O [Triflusal]	1.14
N=c1ccn2c(n1)O[C@H]1[C@H](O)[C@@H](CO)O[C@H]12 [Ancitabine hydrochloride]	1.21
N=c1ccn2c(n1)O[C@H]1[C@H](O)[C@@H](CO)O[C@H]12	1.09
C[N+](C)(C)CCO.[Br-] [Choline bromide]	1.06

SMILES	normalized bacterial growth
O=c1[nH]cc(F)c(=O)[nH]1 [5-Fluorouracil]	0.141
O=C(O)c1cc(=O)c2cccc(O)c2[nH]1	1.23
C[C@]12C=CC(=O)C=C1CC[C@@H]1[C@@H]2[C@@H](O)C[C@@]2(C)[C@H]1CC[C@]2(O)C(=O)CO [Prednisolone]	0.924
C[C@]12C=CC(=O)C=C1CC[C@@H]1[C@@H]2[C@@H](O)C[C@@]2(C)[C@H]1CC[C@]2(O)C(=O)CO	1
CC(C)Cc1ccc([C@H](C)C(=O)O)cc1 [S(+)-Ibuprofen]	1.16
CS(=O)(=O)c1ccc([C@@H](O)[C@@H](CO)NC(=O)C(Cl)Cl)cc1	1.22
NS(=O)(=O)c1cc2c(cc1Cl)N=C(CSCc1ccccc1)NS2(=O)=O	1.21
CC(=O)OC/C=C(C)/C=C/C=C(C)/C=C/C1=C(C)CCCC1(C)C	0.666
O=C1C(CC[S+]([O-])c2ccccc2)C(=O)N(c2ccccc2)N1c1ccccc1 (stereo not drawn)	1.03
Cc1ccccc1/C=C/C1=NCCN1 [Metrazoline oxalate]	1.09
COc1ccc(CCN(C)CCc2ccc(OC)c(OC)c2)cc1OC [YS-035 hydrochloride]	0.692
CC[N+](CC)(CC)CC [Tetraethylammonium chloride]	0.962
CC[C@@]1(O)C(=O)OCc2c1cc1n(c2=O)Cc2cc3cc(O)ccc3nc2-1	1.3 and 0.787
CO[C@@]1(NC(=O)C(C(=O)O)c2ccc(O)cc2)C(=O)N2C(C(=O)O)=C(CSc3nnnn3C)CO[C@@H]21 (stereo partly drawn) [Moxalactam disodium salt]	0.6
CO[C@@]1(NC(=O)C(C(=O)O)c2ccc(O)cc2)C(=O)N2C(C(=O)O)=C(CSc3nnnn3C)CO[C@@H]21 (stereo partly drawn)	1.11
O=c1c(O)c(-c2ccccc2)oc2ccccc12	0.45
C#C[C@]1(O)CC[C@H]2[C@@H]3CCC4=CC(=O)CC[C@@H]4[C@H]3CC[C@@]21C [Norethindrone]	1.13
C#C[C@]1(O)CC[C@H]2[C@@H]3CCC4=CC(=O)CC[C@@H]4[C@H]3CC[C@@]21C	1.27
COc1cc2c(CCNC(C)=O)c[nH]c2cc1O [6-Hydroxymelatonin]	0.906
C#C[C@]1(OC(C)=O)CC[C@H]2[C@@H]3CCC4=C[C@@H](OC(C)=O)CC[C@@H]4[C@H]3CC[C@@]21C	1.01
C#C[C@]1(OC(C)=O)CC[C@H]2[C@@H]3CCC4=C[C@@H](OC(C)=O)CC[C@@H]4[C@H]3CC[C@@]21C [Ethynodiol diacetate]	0.943
C[C@@H]1CC[C@@]2(OC1)O[C@H]1C[C@H]3[C@@H]4CC[C@H]5C[C@@H](O)CC[C@]5(C)[C@H]4CC[C@]3(C)[C@H]1[C@@H]2C	1.03

SMILES	normalized bacterial growth
Nc1ccc(S(=O)(=O)Nc2ncccn2)cc1	1.19
CCC(=O)O[C@H](CC(=O)O)C[N+](C)(C)C	1.19
Clc1ccccc1CN1CCc2sccc2C1	1.04
CCN(CC)CCOC(=O)C1(c2ccc([N+](=O)[O-])cc2)CCCC1 [Nitrocaramiphen hydrochloride]	1.1
Cc1cc(OC(=O)c2c(C)cc(O)cc2O)cc(O)c1C(=O)O	1.24
Nc1ccc(O)c(C(=O)O)c1	1.3
Cc1cc(C(C)(C)CC(C)(C)C)ccc1OCCOCC[N+](C)(C)Cc1ccccc1	0.0657
Cc1cc(NC(=O)C2=C(O)c3ccccc3S(=O)(=O)N2C)no1	0.877
CN(C)CCCN1c2ccccc2CCc2ccc(Cl)cc21 [Clomipramine hydrochloride]	1.02
CO[C@@]1(NC(=O)C2SC(=C(C(N)=O)C(=O)O)S2)C(=O)N2C(C(=O)O)=C(CSc3nnnn3C)CS[C@@H]21 (stereo partly drawn) [Cefotetan]	0.0401
COC(=O)C1=C(C)NC(C)=C(C(=O)OC)C1c1ccccc1[N+](=O)[O-] [Nifedipine]	0.805
CNC(=O)[C@H]1O[C@@H](n2cnc3c(NCc4ccc(N)cc4)ncnc32)[C@H](O)[C@@H]1O	0.715
COc1cc2c(cc1O)CC[C@@H]1[C@@H]2CC[C@]2(C)[C@@H](O)CC[C@@H]12 [2-methoxyestradiol]	0.841
C#C[C@]1(O)CC[C@H]2[C@@H]3CCc4cc(OC)ccc4[C@H]3CC[C@@]21C	1.18
C#C[C@]1(O)CC[C@H]2[C@@H]3CCc4cc(OC)ccc4[C@H]3CC[C@@]21C [Ethynylestradiol 3-methyl ether]	0.746
CC(C)NCC(O)c1ccc(NS(C)(=O)=O)cc1 (stereo not drawn) [()-Sotalol hydrochloride]	0.865
CC1=C(C)C(=O)C(CCCCC#CCCCC#CCO)=C(C)C1=O	0.642
CN(C)CCCCSC(=N)N	1.19
CC(=O)N1CCN(c2ccc(OCC3COC(Cn4ccnc4)(c4ccc(Cl)cc4Cl)O3)cc2)CC1 (stereo not drawn)	0.748
CC(=O)N1CCN(c2ccc(OCC3COC(Cn4ccnc4)(c4ccc(Cl)cc4Cl)O3)cc2)CC1 (stereo not drawn) [Ketoconazole]	0.819
CCN(CC)CCCC(C)Nc1c2ccc(Cl)cc2nc2ccc(OC)cc12 (stereo not drawn) [Quinacrine dihydrochloride]	0.559
CCN(CC)CCCC(C)Nc1c2ccc(Cl)cc2nc2ccc(OC)cc12 (stereo not drawn) [Quinacrine dihydrochloride dihydrate]	1.04
